For 29 targets, log2 fold change results are on record in the supplement of paper PMC10849652.

Chains of the proteins cited; added tags and fusions are not shown. Lines headed by an entry give the natural chain unless they say otherwise; changes in a name come on top.
UniProt Q68DE3: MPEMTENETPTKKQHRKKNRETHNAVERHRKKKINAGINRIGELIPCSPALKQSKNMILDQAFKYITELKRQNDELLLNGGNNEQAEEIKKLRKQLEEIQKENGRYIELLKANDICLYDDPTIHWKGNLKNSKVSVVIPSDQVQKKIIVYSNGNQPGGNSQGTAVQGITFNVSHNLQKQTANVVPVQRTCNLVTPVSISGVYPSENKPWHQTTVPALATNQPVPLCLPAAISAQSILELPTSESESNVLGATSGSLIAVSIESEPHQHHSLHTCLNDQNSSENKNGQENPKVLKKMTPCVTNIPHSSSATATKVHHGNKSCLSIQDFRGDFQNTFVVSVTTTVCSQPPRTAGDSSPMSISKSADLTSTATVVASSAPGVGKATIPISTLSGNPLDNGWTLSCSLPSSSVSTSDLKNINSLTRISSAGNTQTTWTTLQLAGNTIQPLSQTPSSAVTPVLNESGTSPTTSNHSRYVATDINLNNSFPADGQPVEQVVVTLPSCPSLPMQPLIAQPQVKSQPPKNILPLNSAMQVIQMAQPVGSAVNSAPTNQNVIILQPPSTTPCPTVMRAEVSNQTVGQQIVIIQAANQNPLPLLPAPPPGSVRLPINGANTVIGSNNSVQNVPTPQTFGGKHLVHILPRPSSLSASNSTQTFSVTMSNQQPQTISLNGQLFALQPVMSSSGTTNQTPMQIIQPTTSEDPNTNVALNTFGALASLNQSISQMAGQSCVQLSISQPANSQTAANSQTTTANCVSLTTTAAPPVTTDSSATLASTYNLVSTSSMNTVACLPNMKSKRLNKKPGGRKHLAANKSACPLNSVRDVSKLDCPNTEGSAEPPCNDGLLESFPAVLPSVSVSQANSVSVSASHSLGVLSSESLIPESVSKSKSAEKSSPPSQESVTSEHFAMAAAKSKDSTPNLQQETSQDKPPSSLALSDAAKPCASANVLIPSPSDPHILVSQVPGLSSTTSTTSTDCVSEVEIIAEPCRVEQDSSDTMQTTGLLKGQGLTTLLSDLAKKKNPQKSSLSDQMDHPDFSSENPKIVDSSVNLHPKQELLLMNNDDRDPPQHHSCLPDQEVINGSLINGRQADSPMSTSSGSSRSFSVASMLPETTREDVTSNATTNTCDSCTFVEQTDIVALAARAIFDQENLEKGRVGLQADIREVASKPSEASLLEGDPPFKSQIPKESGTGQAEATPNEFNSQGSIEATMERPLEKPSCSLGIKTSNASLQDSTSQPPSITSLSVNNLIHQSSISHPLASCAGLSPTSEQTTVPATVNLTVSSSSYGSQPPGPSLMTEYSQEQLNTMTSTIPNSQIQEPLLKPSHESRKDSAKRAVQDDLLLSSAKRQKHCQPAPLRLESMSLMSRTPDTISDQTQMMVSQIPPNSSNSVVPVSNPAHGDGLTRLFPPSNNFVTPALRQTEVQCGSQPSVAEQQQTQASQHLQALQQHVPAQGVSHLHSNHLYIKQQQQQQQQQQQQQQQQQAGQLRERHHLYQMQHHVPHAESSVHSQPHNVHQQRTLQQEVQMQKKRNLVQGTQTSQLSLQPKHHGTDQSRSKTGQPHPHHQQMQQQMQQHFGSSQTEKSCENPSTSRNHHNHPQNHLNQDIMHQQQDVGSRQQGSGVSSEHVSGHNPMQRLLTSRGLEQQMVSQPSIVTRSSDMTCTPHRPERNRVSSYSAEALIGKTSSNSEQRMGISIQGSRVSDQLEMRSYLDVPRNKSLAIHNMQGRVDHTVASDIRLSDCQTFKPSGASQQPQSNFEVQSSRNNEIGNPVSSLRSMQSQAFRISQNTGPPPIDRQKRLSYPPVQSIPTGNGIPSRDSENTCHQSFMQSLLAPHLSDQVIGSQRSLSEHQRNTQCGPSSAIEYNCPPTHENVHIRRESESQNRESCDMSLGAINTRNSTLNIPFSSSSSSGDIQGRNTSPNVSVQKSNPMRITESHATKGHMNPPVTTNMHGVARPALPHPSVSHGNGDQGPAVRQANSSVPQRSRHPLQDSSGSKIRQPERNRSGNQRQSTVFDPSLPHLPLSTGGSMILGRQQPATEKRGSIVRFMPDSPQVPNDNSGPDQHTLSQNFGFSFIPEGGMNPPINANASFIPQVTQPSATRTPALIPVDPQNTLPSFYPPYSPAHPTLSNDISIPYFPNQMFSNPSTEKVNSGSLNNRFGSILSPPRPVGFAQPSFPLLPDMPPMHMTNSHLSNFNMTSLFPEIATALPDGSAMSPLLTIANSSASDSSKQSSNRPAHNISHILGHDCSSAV
UniProt Q9BTM9: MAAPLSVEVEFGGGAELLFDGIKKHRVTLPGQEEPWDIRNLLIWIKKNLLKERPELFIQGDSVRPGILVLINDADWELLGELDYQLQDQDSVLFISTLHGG
UniProt P63027, whole entry, looked up: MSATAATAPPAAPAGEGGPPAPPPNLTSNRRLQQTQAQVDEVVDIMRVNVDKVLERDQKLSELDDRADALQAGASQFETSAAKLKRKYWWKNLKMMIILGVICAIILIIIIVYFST
UniProt Q8TED0: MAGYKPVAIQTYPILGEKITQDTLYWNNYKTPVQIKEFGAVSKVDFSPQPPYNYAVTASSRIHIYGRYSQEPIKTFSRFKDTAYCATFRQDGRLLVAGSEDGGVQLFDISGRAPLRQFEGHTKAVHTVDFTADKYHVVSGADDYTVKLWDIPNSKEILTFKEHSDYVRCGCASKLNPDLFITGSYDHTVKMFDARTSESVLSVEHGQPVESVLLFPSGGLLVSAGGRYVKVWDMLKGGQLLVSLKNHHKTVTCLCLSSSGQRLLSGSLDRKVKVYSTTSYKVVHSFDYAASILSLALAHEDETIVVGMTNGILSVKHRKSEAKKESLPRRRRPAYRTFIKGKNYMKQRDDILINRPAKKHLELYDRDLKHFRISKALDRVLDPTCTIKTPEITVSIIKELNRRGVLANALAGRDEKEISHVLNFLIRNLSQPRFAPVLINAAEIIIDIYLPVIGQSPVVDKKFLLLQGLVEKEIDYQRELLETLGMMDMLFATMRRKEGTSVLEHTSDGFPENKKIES
UniProt P15374: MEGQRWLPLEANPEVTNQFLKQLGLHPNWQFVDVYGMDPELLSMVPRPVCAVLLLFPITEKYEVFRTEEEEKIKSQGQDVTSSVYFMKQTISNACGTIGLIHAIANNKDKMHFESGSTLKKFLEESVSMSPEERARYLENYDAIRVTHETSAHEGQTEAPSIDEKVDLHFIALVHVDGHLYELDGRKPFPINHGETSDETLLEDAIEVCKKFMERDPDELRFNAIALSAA
UniProt O14562: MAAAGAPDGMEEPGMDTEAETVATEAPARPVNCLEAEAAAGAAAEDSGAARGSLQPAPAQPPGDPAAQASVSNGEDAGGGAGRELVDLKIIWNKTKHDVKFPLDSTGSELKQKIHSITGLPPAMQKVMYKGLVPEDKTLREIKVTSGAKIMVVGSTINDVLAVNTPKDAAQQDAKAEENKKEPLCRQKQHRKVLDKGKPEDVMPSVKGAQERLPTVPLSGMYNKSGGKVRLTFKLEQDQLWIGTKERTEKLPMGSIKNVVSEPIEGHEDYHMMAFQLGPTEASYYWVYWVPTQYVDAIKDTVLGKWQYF
UniProt O95071: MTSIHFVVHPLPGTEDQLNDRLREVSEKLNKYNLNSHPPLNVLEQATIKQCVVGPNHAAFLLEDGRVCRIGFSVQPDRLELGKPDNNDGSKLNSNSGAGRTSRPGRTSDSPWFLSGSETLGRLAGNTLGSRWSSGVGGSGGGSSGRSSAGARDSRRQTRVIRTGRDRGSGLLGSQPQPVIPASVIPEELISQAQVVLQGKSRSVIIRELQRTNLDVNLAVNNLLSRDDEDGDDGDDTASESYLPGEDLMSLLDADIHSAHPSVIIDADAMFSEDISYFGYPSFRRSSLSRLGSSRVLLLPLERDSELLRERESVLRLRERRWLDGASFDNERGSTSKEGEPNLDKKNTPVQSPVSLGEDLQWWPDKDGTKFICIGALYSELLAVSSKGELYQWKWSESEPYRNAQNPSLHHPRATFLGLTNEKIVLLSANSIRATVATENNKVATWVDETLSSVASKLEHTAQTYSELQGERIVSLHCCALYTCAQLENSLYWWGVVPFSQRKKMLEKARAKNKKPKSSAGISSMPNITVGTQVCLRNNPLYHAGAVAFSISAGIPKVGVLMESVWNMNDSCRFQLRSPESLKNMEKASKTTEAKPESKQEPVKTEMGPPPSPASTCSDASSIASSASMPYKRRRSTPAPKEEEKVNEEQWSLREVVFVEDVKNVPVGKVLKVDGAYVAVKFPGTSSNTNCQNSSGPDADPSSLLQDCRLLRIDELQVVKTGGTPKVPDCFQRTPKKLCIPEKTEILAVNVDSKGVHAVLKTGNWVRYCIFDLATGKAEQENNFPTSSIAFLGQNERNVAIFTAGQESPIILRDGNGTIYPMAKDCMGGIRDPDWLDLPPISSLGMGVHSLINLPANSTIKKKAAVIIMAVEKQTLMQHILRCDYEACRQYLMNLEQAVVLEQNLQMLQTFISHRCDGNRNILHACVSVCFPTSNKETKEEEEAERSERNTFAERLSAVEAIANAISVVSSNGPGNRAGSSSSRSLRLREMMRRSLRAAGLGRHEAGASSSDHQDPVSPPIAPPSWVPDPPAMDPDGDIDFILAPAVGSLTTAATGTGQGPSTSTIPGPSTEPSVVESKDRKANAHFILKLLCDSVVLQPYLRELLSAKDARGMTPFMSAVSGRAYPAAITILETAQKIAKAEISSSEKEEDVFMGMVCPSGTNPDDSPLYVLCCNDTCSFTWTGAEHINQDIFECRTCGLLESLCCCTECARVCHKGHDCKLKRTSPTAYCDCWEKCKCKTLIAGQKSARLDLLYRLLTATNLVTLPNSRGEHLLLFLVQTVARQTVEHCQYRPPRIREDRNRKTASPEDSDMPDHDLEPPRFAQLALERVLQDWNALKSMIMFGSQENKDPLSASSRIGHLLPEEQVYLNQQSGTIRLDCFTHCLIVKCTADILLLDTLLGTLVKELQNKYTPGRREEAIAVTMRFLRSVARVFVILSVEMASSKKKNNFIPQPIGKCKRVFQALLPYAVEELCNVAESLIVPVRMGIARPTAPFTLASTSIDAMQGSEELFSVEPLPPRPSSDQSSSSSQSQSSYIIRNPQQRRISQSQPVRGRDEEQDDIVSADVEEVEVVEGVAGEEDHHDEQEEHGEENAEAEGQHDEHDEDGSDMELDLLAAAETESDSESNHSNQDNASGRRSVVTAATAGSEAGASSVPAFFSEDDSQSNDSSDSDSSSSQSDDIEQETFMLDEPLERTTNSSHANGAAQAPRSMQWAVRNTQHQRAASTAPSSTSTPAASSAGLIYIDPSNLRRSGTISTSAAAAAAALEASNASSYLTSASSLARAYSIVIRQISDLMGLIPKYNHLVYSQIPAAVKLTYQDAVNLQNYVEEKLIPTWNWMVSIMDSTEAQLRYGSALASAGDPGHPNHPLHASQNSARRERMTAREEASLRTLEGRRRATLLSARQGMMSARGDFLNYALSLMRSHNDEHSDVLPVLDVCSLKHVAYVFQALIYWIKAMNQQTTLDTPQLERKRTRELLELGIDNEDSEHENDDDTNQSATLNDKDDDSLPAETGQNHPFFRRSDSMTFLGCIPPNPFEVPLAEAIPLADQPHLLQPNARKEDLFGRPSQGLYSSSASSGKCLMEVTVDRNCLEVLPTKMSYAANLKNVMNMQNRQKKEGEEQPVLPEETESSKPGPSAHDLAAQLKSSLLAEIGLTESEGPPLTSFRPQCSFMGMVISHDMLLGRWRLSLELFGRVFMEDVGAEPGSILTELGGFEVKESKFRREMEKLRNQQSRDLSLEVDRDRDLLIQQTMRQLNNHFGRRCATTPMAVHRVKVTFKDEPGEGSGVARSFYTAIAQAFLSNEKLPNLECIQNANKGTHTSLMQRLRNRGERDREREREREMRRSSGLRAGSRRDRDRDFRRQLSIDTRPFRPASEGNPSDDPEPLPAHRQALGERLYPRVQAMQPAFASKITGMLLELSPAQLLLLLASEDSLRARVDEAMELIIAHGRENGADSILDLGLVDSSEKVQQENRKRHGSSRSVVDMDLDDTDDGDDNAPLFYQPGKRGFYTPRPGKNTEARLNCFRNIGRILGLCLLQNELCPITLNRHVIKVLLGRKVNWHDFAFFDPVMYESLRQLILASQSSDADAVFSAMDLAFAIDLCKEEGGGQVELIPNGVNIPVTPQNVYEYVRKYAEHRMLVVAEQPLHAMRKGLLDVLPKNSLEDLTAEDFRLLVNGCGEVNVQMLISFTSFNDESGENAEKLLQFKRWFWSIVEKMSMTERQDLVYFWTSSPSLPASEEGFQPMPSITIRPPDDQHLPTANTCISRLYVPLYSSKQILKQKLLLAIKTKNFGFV
UniProt Q9HA47: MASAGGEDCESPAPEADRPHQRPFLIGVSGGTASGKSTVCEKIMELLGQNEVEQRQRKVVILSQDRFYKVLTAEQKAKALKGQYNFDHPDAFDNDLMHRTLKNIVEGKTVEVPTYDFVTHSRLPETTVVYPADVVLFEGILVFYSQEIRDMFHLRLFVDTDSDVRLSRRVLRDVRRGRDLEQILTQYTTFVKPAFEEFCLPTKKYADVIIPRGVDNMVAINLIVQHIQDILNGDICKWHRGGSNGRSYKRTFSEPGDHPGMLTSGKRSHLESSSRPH

This is one part of the list.

Compound in this assay: c1cn2cc(-c3ccc4cn[nH]c4c3)nc(Nc3ccc(N4CCOCC4)cc3)c2n1 [entospletinib]
As to the kind of experiment: log2 fold change, soluble protein after heating vs DMSO (PISA); higher = thermal stabilisation; K562 cells, 10 uM, 30 min; active = over 0.2 and 3.5 SD of the protein, either way, in both replicates (recomputed). Summed up: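 K562 cells at 2×10^6 cells/mL were treated for 30 min with 10 μM compound, and aliquots were heated for 3 min over 48°C-58°C before pooling. Extraction used PBS with 0.5% NP-40 at 4°C, and soluble protein was the supernatant after 21,000xg for 90 min, measured by TMTpro 16plex LC-MS/MS with channel sums equalised. Thermal stability values, relative to control samples and from duplicates, are log2 fold changes.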
As to UBXN4 (UniProt Q92575), the log2 fold change was inactive: 0.018.

For the target USF3 (UniProt Q68DE3), the log2 fold change was inactive: 0.188.

On to VAPB (UniProt O95292), for which the log2 fold change is inactive: -0.046.

Consider UNC93B1 (UniProt Q9H1C4), for which the log2 fold change is inactive: 0.084.

With URM1 isoform 2 (UniProt Q9BTM9), the log2 fold change is inactive: -0.008.

Regarding UGP2 (UniProt Q16851), the log2 fold change is inactive: -0.004.

For the target UNC13D isoform 3 (UniProt Q70J99), the log2 fold change is inactive: 0.15.

For the target VAMP2 (UniProt P63027), the log2 fold change was inactive: -0.098.

For the target UBQLN1 (UniProt Q9UMX0), the log2 fold change was inactive: 0.094.

In the case of UTP15 (UniProt Q8TED0), the log2 fold change is inactive: 0.079.

As for UTP18 (UniProt Q9Y5J1), the log2 fold change was inactive: 0.109.

On to VAPA (UniProt Q9P0L0), for which the log2 fold change was inactive: -0.148.

For UCHL3 (UniProt P15374), the log2 fold change was inactive: 0.054.

Turning to UBQLN4 (UniProt Q9NRR5), the log2 fold change is inactive: 0.006.

For USF2 (UniProt Q15853), the log2 fold change was inactive: 0.032.

Consider UMPS (UniProt P11172), for which the log2 fold change was inactive: 0.005.

As to UNC45A (UniProt Q9H3U1), the log2 fold change was inactive: 0.058.

For USP20 (UniProt Q9Y2K6), the log2 fold change was inactive: 0.09.

For VAT1 (UniProt Q99536), the log2 fold change was inactive: -0.006.

With UBR3 isoform 4 (UniProt Q6ZT12), the log2 fold change is inactive: 0.163.

In the case of VARS (UniProt P26640), the log2 fold change is inactive: 0.022.

Take UGCG (UniProt Q16739): the log2 fold change is inactive: -0.094.

For UBQLN2 (UniProt Q9UHD9), the log2 fold change is inactive: -0.002.

For the target UBFD1 (UniProt O14562), the log2 fold change was inactive: -0.02.

In the case of UBR5 (UniProt O95071), the log2 fold change is inactive: 0.034.

In the case of USP19 isoform 6 (UniProt O94966), the log2 fold change is inactive: -0.025.

For ULK3 isoform 4 (UniProt Q6PHR2), the log2 fold change is inactive: -0.171.

Regarding VAPA isoform 2 (UniProt Q9P0L0), the log2 fold change is inactive: -0.056.

UCK1 (UniProt Q9HA47): the log2 fold change was inactive: -0.099.
